{"source": "patent US20100113366A1", "about": "“USE OF PROLINE-RICH PEPTIDE DERIVED FROM HYPOTHALAMUS FOR THE MANUFACTURE OF A MEDICAMENT FOR THE TREATMENT AND/OR PROPHYLAXIS OF CATTLE LEUCOSIS” (priority 2005, published 2010)", "origin": "cited, not measured here", "key": {"[1]": {"tested_on": "large, medium lymphocytes, lymphoblasts and pro-lymphocytes, malignant cells of cattle with leucosis", "details": "in vitro, blood of cattle with leucosis; cited from earlier work"}, "[2]": {"tested_on": "mice with cyclophosphamide-induced lymphocytopenia", "details": "cited from earlier work"}, "[3]": {"tested_on": "human malignant T-cells (Jurkat cells)", "details": "in vitro; PRP-1 concentrations 1×10^−10-1×10^−6 M; cited from earlier work"}}, "note": "Not every detail of the peptide structures is certain; ends, links or a residue may be inferred. Where no end group is shown, it is not given here."}
{"sequence": "AGAPEPAEPAQPGVY [PRP-1, Ala-Gly-Ala-Pro-Glu-Pro-Ala-Glu-Pro-Ala-Gln-Pro-Gly-Val-Tyr]", "values": [{"measurement": "effect on large, medium lymphocytes, lymphoblasts, pro-lymphocytes and malignant cells", "setting": "[1]", "value": "degenerative structural destruction"}, {"measurement": "myelopoiesis", "setting": "[2]", "value": "completely restores"}, {"measurement": "proliferation of Jurkat cells", "setting": "[3]", "value": "strongly suppresses"}]}
